Like-named read-outs stand apart in the source and are kept apart here.

For data set [1], the system named is HBsAg. The note with it: HBsAg 1 U/ml, EDTA whole blood stored at 4° C. for 3 days; for Recovery ratio: plasma = 100%.
The test system of data set [2] is HBsAg. The note with it: detergent 2% upon mixing of whole blood; fresh blood immediately after collection; plasma = 100%.
The test system of data set [3] is HBsAg. The note with it: HBsAg 0.5 U/ml, heparin whole blood stored overnight at 4° C., plasma = 100%.
In another data set the test system is whole blood. Description: Example 4: visual inspection of reaction system, types and concentrations of detergents (hemolysis, adhesion, aggregation). To be noted: heparin whole blood stored overnight at 4° C.
Setting [4] is: detergent 1% upon mixing of whole blood.
Where [5] appears, read: detergent 2% upon mixing of whole blood.
[6] abbreviates: detergent 0.01% upon mixing of whole blood.
The mark [7] stands for this setting: detergent 0.1% upon mixing of whole blood.
The mark [8] stands for this setting: detergent 0.5% upon mixing of whole blood.
Where [9] appears, read: detergent 10% upon mixing of whole blood.

As to Polyoxyethylene stearyl ether [Brij 78], in the data set on HBsAg [1] (setting [4]), the Luminescence intensity worked out at 5820 and the Recovery ratio turned out to be 48%.
Regarding `O=S(=O)([O-])CCC[n+]1ccccc1`, in the data set with HBsAg [1] (setting [5]), the Luminescence intensity worked out at 10830. Also, the Recovery ratio with HBsAg [1] (setting [5]) was 88%; with HBsAg [2], 86%; in the data set on HBsAg [3] (setting [6]), 28%; in the data set on HBsAg [3] (setting [7]) it was 51%; in the data set on HBsAg [3] (setting [8]), 48%; in the data set on HBsAg [3] (setting [4]), 86%. The Recovery ratio in the data set with HBsAg [3] (setting [9]) is 22%.
Consider “Polyoxyethylene octyl phenyl ether [Triton X-100]”, for which the “Adhesion of magnetic particles to reaction vessel wall” value is recorded as “Present” in the data set on whole blood (setting [6]); “Present” in the data set on whole blood (setting [7]); “Absent” in the data set with whole blood (setting [8]); “Absent” in the data set on whole blood (setting [4]); “Absent” in the data set on whole blood (setting [9]). The “Aggregation of magnetic particles” value in the data set on whole blood (setting [6]), in the data set on whole blood (setting [7]), in the data set with whole blood (setting [8]), in the data set with whole blood (setting [4]) and in the data set with whole blood (setting [9]) was “Present” throughout. The molecule also had a Luminescence intensity in the data set on HBsAg [1] (setting [4]) of 5130. Also, the Recovery ratio in the data set with HBsAg [1] (setting [4]) turned out to be 42%.
Consider `C[C@H](CCC(=O)NCCC[N+](C)(C)CCCS(=O)(=O)[O-])[C@H]1CC[C@H]2[C@@H]3[C@H](O)C[C@@H]4C[C@H](O)CC[C@]4(C)[C@H]3C[C@H](O)[C@]12C` [CHAPS, 3-{(3-Cholamidopropyl)dimethylammonio}-1-propanesulfonate], for which, in the data set on HBsAg [1] (setting [4]), the Luminescence intensity was 8020 and the Recovery ratio amounted to 66%.
Take `CCCCCCCCCCCCOS(=O)(=O)[O-].[Na+]` [SDS, Sodium dodecylsulfate]: the Luminescence intensity with HBsAg [1] (setting [4]) is recorded as 2450.

For the origin of these results see patent US7338809B2, “Method for assaying whole blood” (Mitsubishi Kagaku Iatron, Inc., priority 2001, dated 2008).
